This note sets out measurements from PMC5325358.

Amino acid sequences for entries named in this document (tags omitted). A change or cut given only in a name is not applied to a line headed by its entry.
UniProt P61586: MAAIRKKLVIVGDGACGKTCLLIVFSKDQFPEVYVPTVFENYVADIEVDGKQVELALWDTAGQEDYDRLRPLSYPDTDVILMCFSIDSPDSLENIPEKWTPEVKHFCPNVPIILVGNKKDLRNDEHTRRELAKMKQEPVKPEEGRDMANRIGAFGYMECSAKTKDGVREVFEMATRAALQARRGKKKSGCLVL
UniProt Q9Y4F9: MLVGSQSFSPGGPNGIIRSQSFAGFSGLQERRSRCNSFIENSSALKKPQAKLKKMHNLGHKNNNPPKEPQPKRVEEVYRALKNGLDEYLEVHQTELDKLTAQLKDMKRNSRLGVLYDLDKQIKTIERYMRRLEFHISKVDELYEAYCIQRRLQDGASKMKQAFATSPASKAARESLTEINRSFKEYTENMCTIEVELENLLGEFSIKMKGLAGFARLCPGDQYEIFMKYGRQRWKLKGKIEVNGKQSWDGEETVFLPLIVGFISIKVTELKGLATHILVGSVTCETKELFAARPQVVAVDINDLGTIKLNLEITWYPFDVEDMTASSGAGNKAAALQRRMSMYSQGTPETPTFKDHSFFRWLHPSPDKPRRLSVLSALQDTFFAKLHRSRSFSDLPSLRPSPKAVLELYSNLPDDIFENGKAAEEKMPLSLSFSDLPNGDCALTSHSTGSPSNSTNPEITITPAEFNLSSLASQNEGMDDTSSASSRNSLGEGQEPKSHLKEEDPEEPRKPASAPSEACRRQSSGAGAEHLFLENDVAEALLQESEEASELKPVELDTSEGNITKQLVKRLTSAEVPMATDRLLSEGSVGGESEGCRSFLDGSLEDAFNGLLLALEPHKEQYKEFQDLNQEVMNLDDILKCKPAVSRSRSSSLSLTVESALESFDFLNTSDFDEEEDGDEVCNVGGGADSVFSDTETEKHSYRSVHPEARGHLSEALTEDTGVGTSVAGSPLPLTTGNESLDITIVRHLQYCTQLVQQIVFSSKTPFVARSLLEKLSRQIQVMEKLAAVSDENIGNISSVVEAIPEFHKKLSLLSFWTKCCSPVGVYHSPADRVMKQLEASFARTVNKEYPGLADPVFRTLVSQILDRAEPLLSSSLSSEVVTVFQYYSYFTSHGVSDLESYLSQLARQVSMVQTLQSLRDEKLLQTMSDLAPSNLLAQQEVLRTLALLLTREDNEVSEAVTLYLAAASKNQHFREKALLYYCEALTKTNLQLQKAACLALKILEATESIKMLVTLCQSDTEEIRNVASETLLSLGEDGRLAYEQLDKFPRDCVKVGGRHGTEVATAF
UniProt Q9UBN7: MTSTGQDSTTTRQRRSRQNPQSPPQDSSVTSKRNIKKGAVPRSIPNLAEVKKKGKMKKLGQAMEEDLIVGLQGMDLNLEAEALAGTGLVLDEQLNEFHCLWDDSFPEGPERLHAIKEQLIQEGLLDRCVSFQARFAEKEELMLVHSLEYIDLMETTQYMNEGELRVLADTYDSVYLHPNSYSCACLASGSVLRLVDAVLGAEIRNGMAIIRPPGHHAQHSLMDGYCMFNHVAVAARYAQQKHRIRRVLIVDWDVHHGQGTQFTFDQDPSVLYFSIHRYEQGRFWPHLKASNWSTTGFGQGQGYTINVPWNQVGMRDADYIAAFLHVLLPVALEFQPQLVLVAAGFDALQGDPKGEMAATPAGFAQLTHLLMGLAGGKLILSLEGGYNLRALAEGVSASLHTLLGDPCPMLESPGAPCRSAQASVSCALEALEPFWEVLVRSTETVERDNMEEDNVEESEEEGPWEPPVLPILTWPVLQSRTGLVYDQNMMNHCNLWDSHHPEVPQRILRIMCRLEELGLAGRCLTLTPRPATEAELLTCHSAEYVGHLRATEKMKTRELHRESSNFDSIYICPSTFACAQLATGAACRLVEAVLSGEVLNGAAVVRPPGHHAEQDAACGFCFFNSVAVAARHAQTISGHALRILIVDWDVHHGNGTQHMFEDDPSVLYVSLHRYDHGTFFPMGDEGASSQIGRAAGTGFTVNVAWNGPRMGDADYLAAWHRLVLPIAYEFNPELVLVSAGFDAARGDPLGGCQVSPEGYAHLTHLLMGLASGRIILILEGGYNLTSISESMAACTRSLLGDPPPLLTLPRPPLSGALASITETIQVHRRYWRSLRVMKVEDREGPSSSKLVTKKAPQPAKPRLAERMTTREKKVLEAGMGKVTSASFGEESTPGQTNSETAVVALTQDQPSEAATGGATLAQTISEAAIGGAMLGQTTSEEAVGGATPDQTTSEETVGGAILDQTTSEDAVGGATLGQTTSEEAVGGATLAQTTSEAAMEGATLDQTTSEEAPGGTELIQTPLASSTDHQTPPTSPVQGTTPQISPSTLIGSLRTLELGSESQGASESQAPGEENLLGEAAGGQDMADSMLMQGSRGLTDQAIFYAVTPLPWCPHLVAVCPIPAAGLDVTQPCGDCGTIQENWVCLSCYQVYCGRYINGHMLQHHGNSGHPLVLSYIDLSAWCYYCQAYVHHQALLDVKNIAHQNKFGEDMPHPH

Results are given in words; binding and its absence hold for the method and conditions named. Binding seen in cells or lysates may run through a third protein. For part of these data: Binding can be weak; no strength is given.

Assay [1] has as its target GST-RhoA (UniProt P61586). The assay can be described thus: pull-down; beads bearing GST-RhoA (Cytoskeleton) with lysates of transfected HEK293T cells; as described in ref. 9; only the target purified.
The target of assay [2] is FAM65B S(x5)A, Myc-tagged (pEF-Myc vector) (UniProt Q9Y4F9). The assay can be described thus: co-IP; anti-Myc (EZ myc beads) from lysates of transfected HEK293T cells, 2 h at 4°C, eluted with myc peptide; 10 mM HEPES pH 7.5, 150 mM KCl, 0.1% NP-40, with deacetylase, protease and phosphatase inhibitors; immunoblot. For orientation: A western blot detects proteins with antibodies after separation by electrophoresis.

Assay [3] has as its target FAM65B wild type, Myc-tagged (pEF-Myc vector) (UniProt Q9Y4F9). The description is as above.

Regarding “FAM65B RL151-152AA-GFP mutant (from UniProt Q9Y4F9-2)”, the binding result in assay [1] is listed as “no binding”.

Turning to “HDAC6-GFP (from UniProt Q9UBN7 1-1215) (enzyme)”, the results for the binding result in assay [2] and in assay [3] were “no binding” and “binds”, respectively.
